Laboratory results from patent publication US6870154B1, “Capillary mixer with adjustable reaction chamber volume for mass spectrometry” (The University of Western Ontario, priority 2004, dated 2005).
At least one compound was matched to its structure with a doubt left. No end group written: not given here.

Target: T1, chymotrypsin (Bos taurus, UniProt P00766)
T1 construct: Chymotrypsin (a mixture of the α form and δ′ forms); purchased Sigma (St. Louis, Mo.)
Assay: steady-state hydrolysis of bradykinin by chymotrypsin, on-line kinetic ESI-MS
Format: biochemical
Conditions: preliminary studies, data not shown

## RPPGFSPFR [bradykinin, Arg-Pro-Pro-Gly-Phe-Ser-Pro-Phe-Arg]
  preference of cleavage at Phe8-Arg9 over Phe5-Ser6 (ratio): at least 100:1
